The supplement of paper PMC7024190
Some of the results follow. Repeats in this data set agree poorly, so a single value says little.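 A first-round screen of about ten thousand compounds sought those raising reporter output, using human embryonic kidney cells briefly transfected with a plasmid carrying a Renilla luciferase gene driven by the HSV-TK promoter.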

Tested on: HEK 293FT
Experiment: log relative Renilla luciferase luminescence (reporter expression vs reference, reference not stated) (log (base not stated)); higher = higher recombinant reporter expression
Details: 10 µM; time after transfection 48 h
Procedure: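 HEK 293FT cells transiently transfected with pRL-TK (Renilla luciferase) were treated with compounds at 10 uM and luminescence was read about 42 h later. Values are log relative Renilla luminescence (log base and reference not stated). Single-pass screen; 2080 natural products library.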

In order of falling log:
1. C=C1C(=O)O[C@H]2C[C@H](C)C(C(CC(C)=O)OC(C)=O)=CC[C@H]12 (some centres not stated) [Xanthinin]  0.322
2. CC(C)(O[C@@H]1O[C@H](CO[C@@H]2OC[C@](O)(CO)[C@H]2O)[C@@H](O)[C@H](O)[C@H]1O)[C@H](O)COc1c2occc2cc2ccc(=O)oc12  0.154
3. COc1cc(O)c2c(=O)cc(-c3ccccc3)oc2c1 [Tectochrysin]  0.153
4. COc1c(OC(C)=O)cc2c(=O)oc3c(OC(C)=O)c(O[C@@H]4OC[C@@H](OC(C)=O)[C@H](OC(C)=O)[C@H]4OC(C)=O)cc4c(=O)oc1c2c34 [Ducheside A pentaacetate]  0.121
5. C=C(C(=O)O)[C@@H]1CC[C@@]2(C)CCC[C@@](C)(O)[C@@H]2C1 [Ilicic acid]  0.116
6. COc1c(O)cc2c(=O)oc3c(O)c(O[C@@H]4OC[C@@H](O)[C@H](O)[C@H]4O)cc4c(=O)oc1c2c34 [Ducheside A]  0.0997
7. OC[C@@H](O)C(O)[C@H](O)CO [D-arabinitol]  0.0541
8. Cc1cc(OC(=O)c2c(C)cc(O)cc2O)cc(O)c1C(=O)O [Lecanoric acid]  0.0487
9. COc1ccc([C@@H]2CC(=O)c3c(O)cc(OC)cc3O2)cc1 [4',7-Di-O-methylnaringenin]  0.0106
10. C=C(C(=O)O)[C@@H]1CC[C@@]2(C)CCCC(C)=C2C1 [Isocostic acid]  -0.0495
11. COc1c(O)ccc(O)c1-c1cc(=O)c2c(O)cc(O)c(OC)c2o1 [Viscidulin III]  -0.0512
12. OCCC1(O)CCC(O)CC1 (configuration not stated) [Rengyol]  -0.0904
13. O[C@H]1CCN2Cc3ccccc3N=C12 [Vasicine]  -0.121
14. C[C@@H]([C@H]1[C@@H](O)C[C@@]2(C)[C@@H]3CC[C@H]4C(C)(C)C(=O)C=C[C@@]45C[C@@]35CC[C@]12C)N(C)C [Buxbodine B]  -0.163
15. C[C@H]1[C@H](C)CC[C@]2(C(=O)O)CC[C@]3(C(=O)O)C(=CC[C@@H]4[C@@]5(C)CC[C@H](O[C@@H]6O[C@H](CO)[C@@H](O)[C@H](O)[C@H]6O)C(C)(C)[C@@H]5CC[C@]43C)[C@H]12 [Quinovic acid 3-O-beta-D-glucoside]  -0.232
16. O=C1c2c(O)cc(O)cc2O[C@H](c2ccc(O)cc2O)[C@H]1O [Dihydromorin]  -0.253
17. COc1cc(OC)c(O[C@@H]2O[C@H](CO)[C@@H](O)[C@H](O)[C@H]2O)c(OC)c1 [2,4,6-Trimethoxyphenol 1-O-beta-D-glucopyranoside]  -0.642
